These are yes or no findings as the source states them, for the method shown. Some entries that bind do so weakly or less than the wild type.
What follows are binders tested against PDZ1-2 of PSD-95 (postsynaptic density protein-95) (UniProt P78352) (assay: FP competition assay).

By UniProt entry, the sequences of proteins in these tests, tags left out. Residues count along the entry.
UniProt P78352, residues 61-249: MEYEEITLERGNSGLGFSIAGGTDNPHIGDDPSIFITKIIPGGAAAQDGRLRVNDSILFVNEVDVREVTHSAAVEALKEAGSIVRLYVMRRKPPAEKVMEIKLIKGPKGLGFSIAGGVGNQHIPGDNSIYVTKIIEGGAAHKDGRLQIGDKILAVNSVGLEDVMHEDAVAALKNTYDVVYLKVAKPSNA

binding, binds:
ISTDV (N-terminus joined to the OPEG4 linker that bridges the two copies) [compound 6, OPEG4-(ISTDV)2]
KETVV (N-terminus joined to the OPEG4 linker that bridges the two copies) [compound 4, OPEG4-(KETVV)2]
KETRV (N-terminus joined to the OPEG4 linker that bridges the two copies) [compound 5, OPEG4-(KETRV)2]
VETVV (N-terminus joined to the OPEG4 linker that bridges the two copies) [compound 7, OPEG4-(VETVV)2]

Source: patent US20240245793A1, “PSD-95 INHIBITORS AND USES THEREOF” (priority 2021, published 2024)
